From the supplement of paper PMC3682954
Where a name gives a salt, the structure may show the parent alone. ± gives the standard deviation of the averaged measurements. The list shows a part of the results. Many values rest on one well or one pass, so single values are uncertain.

System: RAW 264.7
Test: HMGB1-induced TNF-alpha production relative to HMGB1-stimulated control; higher = more TNF-alpha secretion (less inhibition)
Conditions: stimulus: HMGB1 5 ug/ml, 18 h
[1] = compound concentration: 1 ug/ml

SMILES | HMGB1-induced TNF-alpha production (compound concentration: 3 uM) | HMGB1-induced TNF-alpha production [1]
NCCCS(=O)(=O)O [3-Amino-1-propanesulfonic acid sodium] | 96.5% | 
Nc1nc(/C(=C/CC(=O)O)C(=O)N[C@@H]2C(=O)N3C(C(=O)O)=CCS[C@H]23)cs1 | 92.6% | 
COC(=O)C1=CO[C@@H](C)[C@@H]2CN3CCc4c([nH]c5cc(OC)c(OC)cc45)[C@H]3C[C@H]12 [Reserpiline] |  | 70.1%
CC1=CC(=O)[C@H]2C[C@@H]1C2(C)C [L(-)-Verbenone] |  | 80.2%
CCc1ccc(/C=C2/SC(=S)NC2=O)cc1 | 81.3% | 
CCN(CC)CCNC(=O)c1cc(Br)c(N)cc1OC [Bromopride] | 98.7% | 
CCN(CC)CCNC(=O)c1cc(Br)c(N)cc1OC | 83.7% | 
CCCCC(=O)N(Cc1ccc(-c2ccccc2-c2nnn[nH]2)cc1)[C@H](C(=O)O)C(C)C | 91.5 ± 11% | 
OC(CCN1CCCCC1)(c1ccccc1)c1ccccc1 | 81.7% | 
OC(CCN1CCCCC1)(c1ccccc1)c1ccccc1 [Pridinol methanesulfonate salt] | 81.2% | 
C=CCNc1ncnc2ccc(Br)cc12 | 89.6% | 
O=C(O)c1cc(=O)c2ccccc2[nH]1 [Kynurenic acid] | 99.4% | 
O=C(O)c1cc(=O)c2ccccc2[nH]1 [Kynurenic Acid] |  | 54.9%
O=c1cc(-c2ccc(O)c(O)c2)oc2cccc(O)c12 |  | 55.5%
CC(C)NNC(=O)c1ccncc1 [Iproniazid] | 90.4% | 
CC(C)NNC(=O)c1ccncc1 [Iproniazid phosphate] | 108% | 
CC(C)NNC(=O)c1ccncc1 [Iproniazide phosphate] | 89.6% | 
CC(C)NNC(=O)c1ccncc1 | 88.2 ± 14% | 
O=C(O)C(=O)Cc1ccccc1 [Phenylpyruvic acid] |  | 67.4%
O=C1c2cccc(O)c2C(=O)c2c(O)cccc21 | 78.1% | 
O=c1cc(N2CCOCC2)oc2c(-c3ccccc3)cccc12 [LY-294,002 hydrochloride] | 89% | 
CCOC(N)=O | 85.3 ± 6% | 
O=C(O)CCC(=O)c1ccc(-c2ccccc2)cc1 | 64.7% | 
O=C(O)CCC(=O)c1ccc(-c2ccccc2)cc1 [Fenbufen] | 87.72 ± 0.5% | 
CCC=CCC1C(=O)CCC1CC(=O)O (racemic) [(+/-)-Jasmonic acid] |  | 76.3%
CCN1CCCC1CNC(=O)c1cc(S(N)(=O)=O)ccc1OC (single isomer, unassigned; (-)) [(-)-Sulpiride] | 112% | 
CN1CCN2c3ccccc3Cc3ccccc3C2C1 (stereo not given) | 86.6% | 
CN1CCN2c3ccccc3Cc3ccccc3C2C1 (stereo not given) [Mianserin] | 111% | 
CN1CCN2c3ccccc3Cc3ccccc3C2C1 (stereo not given) [Mianserine hydrochloride] | 71.3% | 
CN1CCN2c3ccccc3Cc3ccccc3C2C1 (stereo not given) [Mianserin hydrochloride] | 103% | 

Six entries from above in a different format:
SMILES,HMGB1-induced TNF-alpha production (compound concentration: 3 uM),HMGB1-induced TNF-alpha production [1]
CC(C)NNC(=O)c1ccncc1 [Iproniazide phosphate],89.6%,
CC(C)NNC(=O)c1ccncc1,88.2 ± 14%,
O=C(O)C(=O)Cc1ccccc1 [Phenylpyruvic acid],,67.4%
O=C1c2cccc(O)c2C(=O)c2c(O)cccc21,78.1%,
"O=c1cc(N2CCOCC2)oc2c(-c3ccccc3)cccc12 [LY-294,002 hydrochloride]",89%,
CCOC(N)=O,85.3 ± 6%,
